Results taken from article doi:10.1101/2020.09.10.287607 (bioRxiv, 2020).

Chains of the proteins cited; added tags and fusions are not shown. Lines headed by an entry give the natural chain unless they say otherwise; changes in a name come on top.
UniProt Q6UXX9: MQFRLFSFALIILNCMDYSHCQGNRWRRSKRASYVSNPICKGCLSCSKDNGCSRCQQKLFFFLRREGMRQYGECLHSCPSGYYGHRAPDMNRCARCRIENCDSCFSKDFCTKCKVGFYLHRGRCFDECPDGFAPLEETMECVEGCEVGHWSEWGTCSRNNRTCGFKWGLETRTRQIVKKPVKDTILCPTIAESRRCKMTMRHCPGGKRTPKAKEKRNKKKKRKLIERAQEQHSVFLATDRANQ
UniProt Q9BXY4: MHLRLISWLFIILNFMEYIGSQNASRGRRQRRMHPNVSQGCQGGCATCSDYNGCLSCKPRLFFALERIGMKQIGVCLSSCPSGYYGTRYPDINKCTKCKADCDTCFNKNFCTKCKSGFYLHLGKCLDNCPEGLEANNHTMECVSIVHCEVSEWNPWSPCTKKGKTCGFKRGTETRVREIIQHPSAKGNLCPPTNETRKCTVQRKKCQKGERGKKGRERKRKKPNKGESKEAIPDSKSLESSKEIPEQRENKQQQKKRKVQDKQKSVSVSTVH

Assays:
[1] = target: human BMPR1A-HA on HEK293T cells (human) (UniProt P36894); assay: cell surface binding assay
[2] = target: human RSPO2^ΔFU2-flag (human) (UniProt Q6UXX9); assay: in vitro binding assay

Molecule | binding [1] | binding [2]
human RSPO2^ΔC-AP (from UniProt Q6UXX9) (ligand) | binds | 
human RSPO3^ΔC-AP (from UniProt Q9BXY4) (ligand) | binds | 
BMPR1A^ECD-AP (domain or fragment, UniProt P36894 24-152, looked up) QNLDSMLHGTGMKSDSDQKKSENGVTLAPEDTLPFLKCYCSGHCPDDAINNTCITNGHCFAIIEEDDQGETTLASGCMKYEGSDFQCKDSPKAQLRRTIECCRTNLCNQYLQPTLPPVVIGPFFDGSIR |  | binds

These are yes or no findings as the source states them, for the method shown. Binding can be weak; no strength is given.
